The results in this text go back to PMC3498349.

Protein sequences, listed by entry. Tags and fused reporters are not part of them.
UniProt O15169: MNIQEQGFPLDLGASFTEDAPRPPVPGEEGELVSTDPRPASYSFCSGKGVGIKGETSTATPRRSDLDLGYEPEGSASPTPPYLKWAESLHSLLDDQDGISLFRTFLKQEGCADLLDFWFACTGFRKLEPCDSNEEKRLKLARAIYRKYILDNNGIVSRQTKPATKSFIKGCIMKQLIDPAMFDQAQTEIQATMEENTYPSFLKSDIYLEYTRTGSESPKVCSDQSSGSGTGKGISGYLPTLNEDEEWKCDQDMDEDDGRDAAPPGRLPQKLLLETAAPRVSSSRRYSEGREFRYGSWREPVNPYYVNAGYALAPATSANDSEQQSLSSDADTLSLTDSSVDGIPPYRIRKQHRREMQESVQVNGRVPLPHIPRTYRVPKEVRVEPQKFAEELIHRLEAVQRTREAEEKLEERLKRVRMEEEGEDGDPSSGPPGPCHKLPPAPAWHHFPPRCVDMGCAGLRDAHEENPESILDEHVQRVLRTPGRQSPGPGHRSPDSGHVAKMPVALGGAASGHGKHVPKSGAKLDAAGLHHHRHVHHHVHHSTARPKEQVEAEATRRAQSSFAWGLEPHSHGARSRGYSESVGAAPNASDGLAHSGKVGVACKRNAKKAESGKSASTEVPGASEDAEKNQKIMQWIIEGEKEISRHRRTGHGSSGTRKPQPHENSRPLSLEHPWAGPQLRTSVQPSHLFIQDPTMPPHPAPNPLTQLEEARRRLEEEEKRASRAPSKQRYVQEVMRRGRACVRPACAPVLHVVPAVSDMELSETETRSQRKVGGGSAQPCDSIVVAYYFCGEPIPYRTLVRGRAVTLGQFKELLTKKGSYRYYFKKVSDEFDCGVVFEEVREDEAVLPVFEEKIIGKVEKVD
UniProt P53350: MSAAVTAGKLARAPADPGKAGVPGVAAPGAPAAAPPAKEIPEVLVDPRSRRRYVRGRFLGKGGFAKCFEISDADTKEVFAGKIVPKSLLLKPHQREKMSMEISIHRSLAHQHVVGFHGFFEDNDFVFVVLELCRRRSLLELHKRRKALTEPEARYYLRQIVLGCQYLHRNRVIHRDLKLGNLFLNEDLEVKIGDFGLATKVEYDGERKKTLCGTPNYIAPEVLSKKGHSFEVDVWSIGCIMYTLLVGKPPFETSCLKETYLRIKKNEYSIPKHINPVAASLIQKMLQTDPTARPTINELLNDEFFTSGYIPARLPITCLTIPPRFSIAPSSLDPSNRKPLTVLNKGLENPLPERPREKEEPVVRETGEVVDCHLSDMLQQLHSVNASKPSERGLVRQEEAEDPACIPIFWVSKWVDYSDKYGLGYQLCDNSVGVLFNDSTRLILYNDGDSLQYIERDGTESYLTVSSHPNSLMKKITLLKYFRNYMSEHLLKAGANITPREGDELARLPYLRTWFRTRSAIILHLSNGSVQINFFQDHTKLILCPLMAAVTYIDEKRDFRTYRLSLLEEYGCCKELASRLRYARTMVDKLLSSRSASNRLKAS

No constants are given. Whether binding was seen depends on the method and setting. In cells and extracts the contact can be indirect. Some entries that bind do so weakly or less than the wild type.

The assay addresses Axin (endogenous, HeLa cells) (human (endogenous in HeLa)) (UniProt O15169). Nature of the assay: co-IP; HeLa cell lysates immunoprecipitated with anti-Axin, mouse anti-PLK1 or control IgGs, then immunoblotting; endogenous proteins.

As for “PLK1 (endogenous, HeLa cells) (from UniProt P53350 1-603) (enzyme)”, the binding entry is “binds”.
